These results are taken from PMC9394119.

No constants are given. Whether binding was seen depends on the method and setting. Binding seen in cells or lysates may run through a third protein. Binding calls can cover weak binding; strength is not graded here. Where a sequence is shown, tags or fusion partners need not be part of it.

For one experiment, the target named is T1, GST-tagged Fbxo45 (UniProt P0C2W1).
T1 sequence: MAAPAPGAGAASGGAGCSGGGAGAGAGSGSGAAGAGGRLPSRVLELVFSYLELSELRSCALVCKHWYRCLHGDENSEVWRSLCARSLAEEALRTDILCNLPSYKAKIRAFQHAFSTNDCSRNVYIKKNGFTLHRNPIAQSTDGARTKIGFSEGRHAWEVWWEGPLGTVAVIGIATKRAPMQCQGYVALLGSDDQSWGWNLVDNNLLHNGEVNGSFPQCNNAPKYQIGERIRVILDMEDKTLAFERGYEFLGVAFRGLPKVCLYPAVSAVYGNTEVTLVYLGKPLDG
The experiment is described as follows: pull-down; GST-Fbxo45 purified on glutathione Sepharose 4B, incubated overnight at 4 °C with RIPA buffer II lysates of HEK293T cells expressing Flag-tagged STEP46 or its mutants; immunoblot; only the target purified.

For another experiment, the target named is Flag-tagged STEP46 WT. The experiment can be described thus: co-IP; HEK293T co-transfected with Flag-tagged STEP46 and HA-tagged Fbxo45 for 48 h; lysis in RIPA buffer II, immunoprecipitated with Flag M2 antibody, immunoblot.
Another experiment concerns the target Flag-tagged STEP46 S49A. Described as above.
For another experiment, the target named is Flag-tagged STEP46 S49E. The description is as above.

In the case of Flag-tagged STEP46 S49A, the binding result with GST-tagged Fbxo45 is reported as “binds”.

For Flag-tagged STEP46 S49E, in the experiment with GST-tagged Fbxo45, the binding entry is on record as “binds weakly”.

In the case of Flag-tagged STEP46 WT, the binding entry with GST-tagged Fbxo45 is on record as “binds”.

B1: HA-tagged Fbxo45 WT (protein, UniProt P0C2W1 1-286)
chain: MAAPAPGAGAASGGAGCSGGGAGAGAGSGSGAAGAGGRLPSRVLELVFSYLELSELRSCALVCKHWYRCLHGDENSEVWRSLCARSLAEEALRTDILCNLPSYKAKIRAFQHAFSTNDCSRNVYIKKNGFTLHRNPIAQSTDGARTKIGFSEGRHAWEVWWEGPLGTVAVIGIATKRAPMQCQGYVALLGSDDQSWGWNLVDNNLLHNGEVNGSFPQCNNAPKYQIGERIRVILDMEDKTLAFERGYEFLGVAFRGLPKVCLYPAVSAVYGNTEVTLVYLGKPLDG
As to B1, the binding result is given as “binds” in the experiment with Flag-tagged STEP46 WT, “binds” with Flag-tagged STEP46 S49A and “binds weakly” with Flag-tagged STEP46 S49E.
